{"source": "PubChem BioAssay AID743454 | Peter MacCallum Cancer Centre, 2014", "test": "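Genes whose loss kills vorinostat-resistant colon cancer cells under vorinostat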 (primary screen)", "system": "human HCT116-VR colon cancer cells, selected for vorinostat resistance", "knock-down reagent": "siRNA pool against human genes, 40 nM siRNA pool", "duration": "vorinostat for 24 h, read-out about 72 h after transfection", "treatment": "vorinostat at 2.5 µM final", "read-out": "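Two measures, CellTiter-Fluor viability and luminescent caspase 3/7 activity, each as fold change against same-plate mock wells, mean of duplicates, then screen-wide robust z-score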", "scale": "viability robust z-score: higher = more viable cells than screen typical; caspase robust z-score: higher = more caspase 3/7 activity than screen typical", "rule for the call": "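Hits are knock-downs in viability class RV1/RV2 or caspase class CA1/CA2, excluding ones that killed cells in the no-drug cell-count arm; hits then retested with single siRNAs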", "note": "This is a random part of about 18,000 reagents. 450 of them (2.5%) count as active. 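Single biological run; no consistent viability z cut-off exists, so the class columns, not z-scores, define the calls.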 Unmarked entries are inactive."}
{"gene symbol": "DNAJC22 (DnaJ heat shock protein family (Hsp40) member C22)", "viability hit class": "no change", "caspase hit class": "no change", "viability robust z-score": -1.16, "caspase robust z-score": 0.79}
{"gene symbol": "TLNRD1 (talin rod domain containing 1)", "viability hit class": "no change", "caspase hit class": "no change", "viability robust z-score": 0.33, "caspase robust z-score": 0.62}
{"gene symbol": "CEP350 (centrosomal protein 350)", "viability hit class": "no change", "caspase hit class": "no change", "viability robust z-score": 0.61, "caspase robust z-score": -0.67}
{"gene symbol": "ANKIB1 (ankyrin repeat and IBR domain containing 1)", "viability hit class": "no change", "caspase hit class": "no change", "viability robust z-score": -0.35, "caspase robust z-score": -1.08}
{"gene symbol": "ADAM15 (ADAM metallopeptidase domain 15)", "viability hit class": "no change", "caspase hit class": "no change", "viability robust z-score": -0.43, "caspase robust z-score": 1.25}
{"gene symbol": "LCE4A (late cornified envelope 4A)", "viability hit class": "no change", "caspase hit class": "no change", "viability robust z-score": 0.64, "caspase robust z-score": 0.57}
{"gene symbol": "ATOSA (atos homolog A)", "viability hit class": "no change", "caspase hit class": "no change", "viability robust z-score": 0.03, "caspase robust z-score": 2.11}

Looked up above.
Entry of DNAJC22 (DnaJ heat shock protein family (Hsp40) member C22) under “viability robust z-score”: -1.16
ADAM15 (ADAM metallopeptidase domain 15), viability hit class → no change

Additional records follow.
{"gene symbol": "RBM17 (RNA binding motif protein 17)", "viability hit class": "no change", "caspase hit class": "no change", "viability robust z-score": -2.27, "caspase robust z-score": 2.5}
{"gene symbol": "IL13RA1 (interleukin 13 receptor subunit alpha 1)", "viability hit class": "no change", "caspase hit class": "no change", "viability robust z-score": 0.03, "caspase robust z-score": 1.36}
{"gene symbol": "NICN1 (nicolin 1, tubulin polyglutamylase complex subunit)", "viability hit class": "no change", "caspase hit class": "no change", "viability robust z-score": -0.08, "caspase robust z-score": -0.85}
{"gene symbol": "GPHN (gephyrin)", "viability hit class": "no change", "caspase hit class": "no change", "viability robust z-score": 0.93, "caspase robust z-score": -0.1}
{"gene symbol": "GPR162 (G protein-coupled receptor 162)", "viability hit class": "no change", "caspase hit class": "no change", "viability robust z-score": 1.2, "caspase robust z-score": -0.42}
{"gene symbol": "CSPG5 (chondroitin sulfate proteoglycan 5)", "viability hit class": "no change", "caspase hit class": "no change", "viability robust z-score": -0.24, "caspase robust z-score": 0.48}
{"gene symbol": "EPB42 (erythrocyte membrane protein band 4.2)", "viability hit class": "no change", "caspase hit class": "no change", "viability robust z-score": -0.2, "caspase robust z-score": -0.7}
{"gene symbol": "ARL9 (ARF like GTPase 9)", "viability hit class": "no change", "caspase hit class": "no change", "viability robust z-score": 0.96, "caspase robust z-score": 0.18}
{"gene symbol": "DDTL (D-dopachrome tautomerase like)", "viability hit class": "no change", "caspase hit class": "no change", "viability robust z-score": 0.13, "caspase robust z-score": -0.02}
{"gene symbol": "TUSC1 (tumor suppressor candidate 1)", "viability hit class": "no change", "caspase hit class": "no change", "viability robust z-score": 1.31, "caspase robust z-score": 1.09}
{"gene symbol": "PEX11A (peroxisomal biogenesis factor 11 alpha)", "viability hit class": "no change", "caspase hit class": "no change", "viability robust z-score": -0.56, "caspase robust z-score": 4.22}
{"gene symbol": "AGBL5 (AGBL carboxypeptidase 5)", "viability hit class": "no change", "caspase hit class": "no change", "viability robust z-score": -1.91, "caspase robust z-score": 1.95}
{"gene symbol": "STAP2 (signal transducing adaptor family member 2)", "viability hit class": "no change", "caspase hit class": "no change", "viability robust z-score": -0.36, "caspase robust z-score": 1}
{"gene symbol": "LORICRIN (loricrin cornified envelope precursor protein)", "viability hit class": "no change", "caspase hit class": "no change", "viability robust z-score": -0.17, "caspase robust z-score": -0.46}
